Laboratory results reported in PMC8626996.
Results are given in words; binding and its absence hold for the method and conditions named. In cells and extracts the contact can be indirect. Some binding calls cover weakened binding; strength is not graded here.

By UniProt entry, the sequences of proteins in these tests, tags left out. Where a name states a change or a piece, a line headed by the entry shows the natural chain unless it says otherwise.
UniProt Q96PU5: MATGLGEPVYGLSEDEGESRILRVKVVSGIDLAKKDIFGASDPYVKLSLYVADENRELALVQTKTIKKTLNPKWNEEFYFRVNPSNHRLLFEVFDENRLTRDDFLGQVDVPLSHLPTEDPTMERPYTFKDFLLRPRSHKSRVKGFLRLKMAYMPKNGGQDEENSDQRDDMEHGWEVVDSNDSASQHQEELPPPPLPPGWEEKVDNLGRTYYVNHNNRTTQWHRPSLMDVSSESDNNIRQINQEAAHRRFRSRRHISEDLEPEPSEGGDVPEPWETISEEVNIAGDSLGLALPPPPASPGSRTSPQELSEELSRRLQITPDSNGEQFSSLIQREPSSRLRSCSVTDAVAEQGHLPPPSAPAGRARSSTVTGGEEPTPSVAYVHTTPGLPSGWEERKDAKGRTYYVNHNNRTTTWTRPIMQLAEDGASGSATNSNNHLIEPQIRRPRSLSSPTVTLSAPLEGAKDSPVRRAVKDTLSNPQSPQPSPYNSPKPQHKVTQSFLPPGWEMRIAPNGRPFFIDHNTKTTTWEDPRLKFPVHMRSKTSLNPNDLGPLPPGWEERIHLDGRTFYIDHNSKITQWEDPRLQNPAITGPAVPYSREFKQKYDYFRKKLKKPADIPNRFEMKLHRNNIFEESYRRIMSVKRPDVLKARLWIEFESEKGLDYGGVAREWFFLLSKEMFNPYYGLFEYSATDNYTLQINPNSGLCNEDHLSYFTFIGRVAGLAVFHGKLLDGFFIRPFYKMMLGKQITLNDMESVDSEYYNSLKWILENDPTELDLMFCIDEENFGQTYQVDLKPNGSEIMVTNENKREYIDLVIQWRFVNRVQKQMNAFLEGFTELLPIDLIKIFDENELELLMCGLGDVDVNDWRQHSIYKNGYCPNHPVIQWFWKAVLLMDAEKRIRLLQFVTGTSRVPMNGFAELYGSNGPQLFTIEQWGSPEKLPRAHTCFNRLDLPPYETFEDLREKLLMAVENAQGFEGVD
UniProt Q9NPD8: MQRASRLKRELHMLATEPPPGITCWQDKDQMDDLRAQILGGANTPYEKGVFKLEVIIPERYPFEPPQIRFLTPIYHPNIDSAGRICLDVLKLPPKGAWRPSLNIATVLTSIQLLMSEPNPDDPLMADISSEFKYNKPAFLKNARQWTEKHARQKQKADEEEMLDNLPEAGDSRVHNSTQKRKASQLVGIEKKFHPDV

Target: HA-NEDD4L (UniProt Q96PU5)
Assay: co-IP; H1299 cells transiently transfected with HA-NEDD4L; lysed in 20 mM Tris-HCl pH 7.5, 150 mM NaCl, 1% NP-40, 0.1% SDS, 0.5% sodium deoxycholate, 1 mM EDTA; immunoprecipitated with bead-conjugated HA antibody, 4 h at 4 °C; immunoblot for endogenous UBE2T

binding: binds
Substance: Ubiquitin-conjugating enzyme E2T (UBE2T), endogenous (from UniProt Q9NPD8 1-197)
